Experimental data published in PubChem BioAssay AID248 (DTP/NCI, 2004).
The list shows only some results of the screen, not a fair sample: it gathers tests that were run many times, whatever their T/C, doses with no T/C, and many T/C values between a quarter and a half above the control. Other doses and runs of a compound stand elsewhere. T/C: endpoint of the treated group in % of that of the vehicle group. Some entries give survivors of the animals treated and no T/C: the source holds a T/C of zero for them, seemingly a mark for toxic or unscored doses. Some doses without a T/C left all or most animals alive at the check, yet need not have been tolerated: survival well below the control is almost never listed, so the zero probably covers shortened survival too. Counts of survivors are from the toxicity check (mostly the fifth day) where no day follows; animals may have died later. Schedules are NCI's codes, taken here to give the interval after Q, in days (D) or hours (H), and the number of doses after X. Some entries were tested several times; the results are listed from low to high. Some schedule codes hold Z or #, which are not explained here. Where survival is the endpoint, the PubChem record calls one and a half times the control and up active, and a quarter to a half above the control has no call in these data; cut-offs in other NCI protocols can differ. Some T/C values are followed by the survivors on the day toxicity was checked, most often the fifth; where none is given, no animal had died by that day.

System: L1210 leukemia ip in BDF1 mice, survival T/C
Assay: NCI In Vivo Anticancer Drug Screen. Data for tumor model L1210 Leukemia (intraperitoneal) in B6D2F1 (BDF1) mice
Settings: higher T/C = longer survival
[1] = T/C endpoint: mean survival time, dose: 255.0 mg/kg/injection, schedule: Q04DX002 (ip), vehicle: alkali diluted with saline
[2] = T/C endpoint: mean survival time, dose: 600.0 mg/kg/injection, schedule: Q01DX001 (ip), vehicle: alkali diluted with saline

S=c1nc[nH]c2nc[nH]c12
T/C (T/C endpoint: mean survival time, dose: 160.0 mg/kg/injection, schedule: Q01DX Z (oral), vehicle: other): 145 % of control | T/C (T/C endpoint: mean survival time, dose: 180.0 mg/kg/injection, schedule: Q01DX001 (ip), vehicle: saline): 149 % of control | T/C (T/C endpoint: mean survival time, dose: 180.0 mg/kg/injection, schedule: Q01DX005 (ip), vehicle: alkali diluted with saline): 148 % of control | T/C (T/C endpoint: mean survival time, dose: 180.0 mg/kg/injection, schedule: Q01DX005 (ip), vehicle: saline, evaluated on day 30): 97 and 100 % of control | T/C (T/C endpoint: mean survival time, dose: 180.0 mg/kg/injection, schedule: Q01DX005 (ip), vehicle: saline, evaluated on day 35): 108 % of control | survivor count (T/C endpoint: mean survival time, dose: 180.0 mg/kg/injection, schedule: Q01DX005 (ip), vehicle: saline): 10 of 10 | T/C (T/C endpoint: mean survival time, dose: 180.0 mg/kg/injection, schedule: Q04DX003 (ip), vehicle: saline): 146 % of control | T/C (T/C endpoint: mean survival time, dose: 180.0 mg/kg/injection, schedule: Q08DX002 (ip), vehicle: saline): 137 % of control | T/C (T/C endpoint: mean survival time, dose: 200.0 mg/kg/injection, schedule: Q01DX001 (ip), vehicle: steroid suspending solution): 147 % of control | T/C (T/C endpoint: mean survival time, dose: 200.0 mg/kg/injection, schedule: Q02DX008 (ip), vehicle: alkali diluted with saline): 148 % of control | T/C (T/C endpoint: mean survival time, dose: 200.0 mg/kg/injection, schedule: Q## X004 (ip), vehicle: alkali diluted with saline): 146 % of control | T/C (T/C endpoint: mean survival time, dose: 202.0 mg/kg/injection, schedule: Q01DX001 (ip), vehicle: alkali diluted with saline): 142 % of control | T/C (T/C endpoint: mean survival time, dose: 202.0 mg/kg/injection, schedule: Q04DX003 (ip), vehicle: saline with Tween-80): 146 % of control | survivor count (T/C endpoint: mean survival time, dose: 205.0 mg/kg/injection, schedule: Q01DX009 (ip), vehicle: saline with Tween-80): 6 of 6 | survivor count (T/C endpoint: mean survival time, dose: 240.0 mg/kg/injection, schedule: Q01DX009 (ip), vehicle: carboxymethylcellulose (CMC)): 10 of 10 | survivor count (T/C endpoint: mean survival time, dose: 240.0 mg/kg/injection, schedule: Q01DX009 (ip), vehicle: other): 9 of 10 | T/C (T/C endpoint: mean survival time, dose: 240.0 mg/kg/injection, schedule: Q04DX004 (ip), vehicle: alkali diluted with saline): 148 % of control | T/C (T/C endpoint: mean survival time, dose: 250.0 mg/kg/injection, schedule: Q01DX001 (ip), vehicle: Klucel (hydroxypropylcellulose) (HPC)): 126 % of control | T/C (T/C endpoint: mean survival time, dose: 250.0 mg/kg/injection, schedule: Q01DX009 (ip), vehicle: Klucel (hydroxypropylcellulose) (HPC)): 134 % of control | T/C (T/C endpoint: mean survival time, dose: 250.0 mg/kg/injection, schedule: Q04DX003 (ip), vehicle: Klucel (hydroxypropylcellulose) (HPC)): 146 % of control | T/C [1]: 130, 170, 180 % of control | survivor count [1]: 1 of 3 | T/C (T/C endpoint: mean survival time, dose: 270.0 mg/kg/injection, schedule: Q04DX003 (ip), vehicle: saline): 145 % of control | T/C (T/C endpoint: mean survival time, dose: 280.0 mg/kg/injection, schedule: Q01DX001 (ip), vehicle: other): 127 % of control | T/C (T/C endpoint: mean survival time, dose: 300.0 mg/kg/injection, schedule: Q01DX001 (ip), vehicle: alkali diluted with saline): 137 and 141 % of control | survivor count (T/C endpoint: mean survival time, dose: 305.0 mg/kg/injection, schedule: Q01DX009 (ip), vehicle: saline with Tween-80): 6 of 6 | T/C (T/C endpoint: mean survival time, dose: 320.0 mg/kg/injection, schedule: Q01DX006 (iv), vehicle: other): 130 % of control | survivor count (T/C endpoint: mean survival time, dose: 320.0 mg/kg/injection, schedule: Q01DX009 (ip), vehicle: saline with Tween-80): 5 of 6 and 6 of 6 | survivor count (T/C endpoint: mean survival time, dose: 320.0 mg/kg/injection, schedule: Q01DX009 (oral), vehicle: saline with Tween-80): 6 of 6 | survivor count (T/C endpoint: mean survival time, dose: 320.0 mg/kg/injection, schedule: Q01DX Z (im), vehicle: other): 6 of 6 | survivor count (T/C endpoint: mean survival time, dose: 320.0 mg/kg/injection, schedule: Q01DX Z (ip), vehicle: carboxymethylcellulose (CMC)): 6 of 6 | survivor count (T/C endpoint: mean survival time, dose: 320.0 mg/kg/injection, schedule: Q01DX Z (ip), vehicle: other): 6 of 6 | T/C (T/C endpoint: mean survival time, dose: 320.0 mg/kg/injection, schedule: Q01DX Z (oral), vehicle: other): 143 % of control | survivor count (T/C endpoint: mean survival time, dose: 320.0 mg/kg/injection, schedule: Q01DX Z (sc), vehicle: other): 6 of 6 | T/C (T/C endpoint: mean survival time, dose: 360.0 mg/kg/injection, schedule: Q04DX004 (ip), vehicle: alkali diluted with saline): 126 % of control | T/C (T/C endpoint: mean survival time, dose: 400.0 mg/kg/injection, schedule: Q01DX001 (ip), vehicle: alkali diluted with saline): 147 % of control [8 of 9 alive] | T/C (T/C endpoint: mean survival time, dose: 400.0 mg/kg/injection, schedule: Q01DX001 (ip), vehicle: steroid suspending solution): 137 % of control | survivor count (T/C endpoint: mean survival time, dose: 400.0 mg/kg/injection, schedule: Q01DX009 (ip), vehicle: Klucel (hydroxypropylcellulose) (HPC)): 6 of 6 | T/C (T/C endpoint: mean survival time, dose: 405.0 mg/kg/injection, schedule: Q04DX003 (ip), vehicle: saline with Tween-80): 130 % of control [5 of 6 alive] | survivor count (T/C endpoint: mean survival time, dose: 450.0 mg/kg/injection, schedule: Q## X004 (ip), vehicle: alkali diluted with saline): 4 of 10 | T/C (T/C endpoint: mean survival time, dose: 500.0 mg/kg/injection, schedule: Q01DX001 (ip), vehicle: Klucel (hydroxypropylcellulose) (HPC)): 128 % of control | survivor count (T/C endpoint: mean survival time, dose: 500.0 mg/kg/injection, schedule: Q01DX001 (ip), vehicle: alkali diluted with saline): 5 of 10 | T/C (T/C endpoint: mean survival time, dose: 500.0 mg/kg/injection, schedule: Q04DX003 (ip), vehicle: Klucel (hydroxypropylcellulose) (HPC)): 136 % of control | T/C (T/C endpoint: mean survival time, dose: 512.0 mg/kg/injection, schedule: Q01DX001 (ip), vehicle: carboxymethylcellulose (CMC)): 142 % of control | T/C (T/C endpoint: mean survival time, dose: 560.0 mg/kg/injection, schedule: Q01DX001 (ip), vehicle: other): 138 and 139 % of control | T/C (T/C endpoint: mean survival time, dose: 560.0 mg/kg/injection, schedule: Q07DX Z (ip), vehicle: other): 132 % of control | T/C [2]: 142 % of control | survivor count [2]: 2 of 10 | T/C (T/C endpoint: mean survival time, dose: 600.0 mg/kg/injection, schedule: Q## X032 (ip), vehicle: alkali diluted with saline): 129 % of control | survivor count (T/C endpoint: mean survival time, dose: 640.0 mg/kg/injection, schedule: Q01DX009 (ip), vehicle: saline with Tween-80): 4 of 6 and 6 of 6 | survivor count (T/C endpoint: mean survival time, dose: 640.0 mg/kg/injection, schedule: Q01DX009 (oral), vehicle: saline with Tween-80): 5 of 6 and 6 of 6 | survivor count (T/C endpoint: mean survival time, dose: 800.0 mg/kg/injection, schedule: Q01DX009 (ip), vehicle: Klucel (hydroxypropylcellulose) (HPC)): 6 of 6 | T/C (T/C endpoint: mean survival time, dose: 1020.0 mg/kg/injection, schedule: Q01DX001 (ip), vehicle: other): 148 % of control | survivor count (T/C endpoint: mean survival time, dose: 1280.0 mg/kg/injection, schedule: Q01DX Z (oral), vehicle: other): 5 of 6 | T/C (T/C endpoint: mean survival time, dose: 5350.0 micrograms/kg/injection, schedule: Q01DX Z (ip), vehicle: carboxymethylcellulose (CMC)): 132 % of control | T/C (T/C endpoint: median survival time, dose: 12.5 mg/kg/injection, schedule: Q01DX009 (ip), vehicle: other): 132 % of control | T/C (T/C endpoint: median survival time, dose: 20.0 mg/kg/injection, schedule: Q01DX009 (ip), vehicle: saline): 110, 112, 118, 130 % of control | T/C (T/C endpoint: median survival time, dose: 25.0 mg/kg/injection, schedule: Q01DX009 (ip), vehicle: other): 132 % of control | T/C (T/C endpoint: median survival time, dose: 25.0 mg/kg/injection, schedule: Q01DX009 (ip), vehicle: water): 127 % of control | T/C (T/C endpoint: median survival time, dose: 36.0 mg/kg/injection, schedule: Q01DX001 (ip), vehicle: alkali diluted with saline): 125 % of control | T/C (T/C endpoint: median survival time, dose: 40.0 mg/kg/injection, schedule: Q01DX009 (ip), vehicle: saline): 110, 112, 135 [5 of 6 alive], 156 % of control | T/C (T/C endpoint: median survival time, dose: 50.0 mg/kg/injection, schedule: Q01DX009 (ip), vehicle: other): 144 % of control | T/C (T/C endpoint: median survival time, dose: 50.0 mg/kg/injection, schedule: Q01DX009 (ip), vehicle: water): 144 % of control | T/C (T/C endpoint: median survival time, dose: 50.0 mg/kg/injection, schedule: Q01DX017 (ip), vehicle: other): 144 % of control | T/C (T/C endpoint: median survival time, dose: 60.0 mg/kg/injection, schedule: Q01DX001 (ip), vehicle: alkali diluted with saline): 128 % of control | T/C (T/C endpoint: median survival time, dose: 80.0 mg/kg/injection, schedule: Q01DX009 (ip), vehicle: saline): 140, 156, 162, 175 % of control | T/C (T/C endpoint: median survival time, dose: 100.0 mg/kg/injection, schedule: Q01DX001 (ip), vehicle: alkali diluted with saline): 125 % of control | survivor count (T/C endpoint: median survival time, dose: 100.0 mg/kg/injection, schedule: Q01DX009 (ip), vehicle: saline): 5 of 6 | T/C (T/C endpoint: median survival time, dose: 100.0 mg/kg/injection, schedule: Q01DX009 (ip), vehicle: water): 144 % of control | T/C (T/C endpoint: median survival time, dose: 100.0 mg/kg/injection, schedule: Q01DX017 (ip), vehicle: other): 138 % of control | T/C (T/C endpoint: median survival time, dose: 160.0 mg/kg/injection, schedule: Q01DX009 (ip), vehicle: saline): 130 % of control | T/C (T/C endpoint: median survival time, dose: 167.0 mg/kg/injection, schedule: Q01DX001 (ip), vehicle: alkali diluted with saline): 137 % of control | survivor count (T/C endpoint: median survival time, dose: 200.0 mg/kg/injection, schedule: Q01DX009 (ip), vehicle: other): 7 of 8 | T/C (T/C endpoint: median survival time, dose: 200.0 mg/kg/injection, schedule: Q01DX009 (ip), vehicle: water): 144 % of control
